PubChem BioAssay AID743121 – NCATS, 2013

Purpose: 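Partners whose loss is lethal together with topoisomerase I blockade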 (primary screen)
Cells: MDA-MB-231 cells, a human breast cancer line
Reagents: single siRNA against human genes, 20 nM siRNA (0.8 pmol per well)
Duration: 120 h (drug added 48 h after transfection, read 72 h later)
Challenge: camptothecin 20 nM (about EC30) for 72 h; vehicle 0.1% DMSO in parallel plates
Read-out: 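Cell viability by ATP luminescence (CellTiter-Glo) as % of non-targeting siRNA wells, and the log2 ratio of viability without drug over viability with camptothecin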
Scale: log2 vehicle/camptothecin viability: higher = stronger sensitisation to camptothecin; viability with camptothecin and viability without drug: higher = more viable cells
Rule for the call: 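Each gene scored by redundant siRNA activity (RSA) over its individual siRNA ratios; a gene is called active at p < 0.001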
This is an unselected part of about 26,000 reagents tested. 167 of all reagents (0.63%) count as active. 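Calls are per gene from RSA p-values that are not deposited; an individual active-marked siRNA can sensitise only weakly.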 Reagents against one gene are numbered here. No sequences are given here.

Gene	siRNA no.	log2 vehicle/camptothecin viability	viability with camptothecin (% of control)	viability without drug (% of control)	outcome
RGS4 (GeneID 5999)	1	0.237	74.4	87.7	inactive
RGS4 (GeneID 5999)	2	0.319	67.3	83.9	inactive
RGS4 (GeneID 5999)	3	-0.453	54.8	40	inactive
GK2 (GeneID 2712)	1	0.0202	69.6	70.6	inactive
GK2 (GeneID 2712)	2	-0.0295	121	118	inactive
GK2 (GeneID 2712)	3	0.0874	107	113	inactive
GK2 (GeneID 2712)	4	-0.342	67.6	53.3	inactive
PARP3 (GeneID 10039)	1	-0.293	95.2	77.7	inactive
PARP3 (GeneID 10039)	2	-0.147	64.7	58.4	inactive
PARP3 (GeneID 10039)	3	-0.234	73.8	62.8	inactive
PARP3 (GeneID 10039)	4	0.216	42.7	49.6	inactive
CXCL16 (GeneID 58191)	1	-0.3	109	88.9	inactive
CXCL16 (GeneID 58191)	2	-0.255	113	94.3	inactive
CXCL16 (GeneID 58191)	3	-0.0791	45.8	43.4	inactive
CXCL16 (GeneID 58191)	4	0.505	41.8	59.3	inactive
HTRA1 (GeneID 5654)	1	-0.501	130	92.1	inactive
HTRA1 (GeneID 5654)	2	-0.169	107	95	inactive
HTRA1 (GeneID 5654)	3	0.21	27.9	32.3	inactive
HTRA1 (GeneID 5654)	4	-0.134	57.8	52.6	inactive
GAPDHS (GeneID 26330)	1	0.0687	87.3	91.6	inactive
GAPDHS (GeneID 26330)	2	0.126	52.6	57.5	inactive
GAPDHS (GeneID 26330)	3	0.765	32.7	55.6	inactive
GAPDHS (GeneID 26330)	4	-0.00757	69.9	69.5	inactive

Limited to “log2 vehicle/camptothecin viability” (6 entries from above):
CXCL16 (GeneID 58191) #1	-0.3
CXCL16 (GeneID 58191) #2	-0.255
CXCL16 (GeneID 58191) #3	-0.0791
CXCL16 (GeneID 58191) #4	0.505
HTRA1 (GeneID 5654) #1	-0.501
HTRA1 (GeneID 5654) #2	-0.169

Further records follow:
Gene	siRNA no.	log2 vehicle/camptothecin viability	viability with camptothecin (% of control)	viability without drug (% of control)	outcome
IL4I1 (GeneID 259307)	1	0.0393	80	82.2	inactive
IL4I1 (GeneID 259307)	2	-0.234	84.9	72.2	inactive
IL4I1 (GeneID 259307)	3	1.42	14.1	37.6	inactive
IL4I1 (GeneID 259307)	4	0.817	44.2	77.8	inactive
DPP10 (GeneID 57628)	1	-0.332	93.5	74.2	inactive
DPP10 (GeneID 57628)	2	-0.0824	128	121	inactive
DPP10 (GeneID 57628)	3	-0.277	103	85.2	inactive
DPP10 (GeneID 57628)	4	-0.0771	103	97.5	inactive
PARD3 (GeneID 56288)	1	-0.268	81	67.2	inactive
PARD3 (GeneID 56288)	2	-0.511	89.8	63	inactive
PARD3 (GeneID 56288)	3	-0.102	103	95.5	inactive
PARD3 (GeneID 56288)	4	0.715	18.5	30.3	inactive
VCL (GeneID 7414)	1	0.0602	104	109	inactive
VCL (GeneID 7414)	2	0.0317	96.8	99	inactive
VCL (GeneID 7414)	3	-0.599	64.7	42.7	inactive
VCL (GeneID 7414)	4	-0.465	95	68.8	inactive
PTP4A1 (GeneID 7803)	1	0.0725	81.4	85.5	inactive
PTP4A1 (GeneID 7803)	2	-0.222	109	93.4	inactive
PTP4A1 (GeneID 7803)	3	-0.331	66.4	52.8	inactive
PTP4A1 (GeneID 7803)	4	-0.339	87.2	68.9	inactive
WTAP (GeneID 9589)	1	-0.747	20.6	12.3	inactive
WTAP (GeneID 9589)	2	0.0697	57.4	60.2	inactive
WTAP (GeneID 9589)	3	1.16	25	55.8	inactive
